At least one compound was matched to its structure with a doubt left.
Tested on: chronic motor tic disorder
Assay: Case report: effect on tics in a child with chronic motor tic disorder
Assay type: in vivo, human
Conditions: single patient, before taking the leaf extract
Description: Withholding all medications for 1 day, they received examination of catecholamine metabolites in the cerebrospinal fluid.
Subsequently, this patient, started to take the extract of the grounded leaves of Clerodendrum inerme, which was prepared by mixing the leaves with water by a blender and collecting the juice after filtration as resulted. […] Honey was added because of the bitter taste. […] The follow-up IQ test had been arranged, but the patient was absent on the examination day.
This patient followed up regularly in NTUH pediatric outpatient clinic for their seizure problem.

SMILES: Cc1cc2c(s1)Nc1ccccc1N=C2N1CCN(C)CC1 [olanzapine]
- effect of earlier anti-tic medications on the involuntary movements of the patient: without success

From patent US8182844B2, “Use of Clerodendrum sp. for treating tic disorders or psychiatric disorders with sensorimotor gating deficits” (priority 2010, dated 2012)
